According to patent US12391751B2, “Antibody against advanced glycation end products and use thereof” (Bloom Technology Corporation, priority 2018, dated 2025):

Test: Radical measurement by ESR of GAL691 and known Glycer-AGEs (Example 19)
Format: physicochemical
Details: 10 mg/mL, PBS solution

Row | SMILES | ESR signal derived from a radical
1 | CC(=O)N[C@@H](CCCC[n+]1cc(O)cc(CO)c1)C(=O)O [GLAP] | no signal derived from a radical was able to be detected
2 | CC(=O)NC(CCCCNCc1cc(O)c[n+](CCCCC(NC(C)=O)C(=O)O)c1)C(=O)O (centres unmarked) [Lys-hydroxy-triosidine] | no signal derived from a radical was able to be detected
